Experimental data reported in patent US9012611B2, “Use of 3,8,12,14, 17,20-oxo-substituted pregnene glycosides in the preparation of healthcare products, food additives and pharmaceuticals for the inhibition of appetite” (Institute of Materia Medica, Chinese Academy of Sciences, priority 2010, dated 2015).

System: female Wistar rat
Test: Animal test in vivo: average water consumption
Conditions: for Average water consumptions: positive control 15 mg/kg; for water consumption doses compared with the blank control group (in words): during the administration of the drugs, pure glycosides 50 mg/kg
[1] = 1st day (administration day), Table 5, wilfosides 50 mg/kg
[2] = 2nd day (administration day), Table 5, wilfosides 50 mg/kg
[3] = 3rd day (administration day), Table 5, wilfosides 50 mg/kg
[4] = 4th day (after administration on days 1-3), Table 5, wilfosides 50 mg/kg
[5] = 5th day (after administration on days 1-3), Table 5, wilfosides 50 mg/kg
[6] = 6th day (after administration on days 1-3), Table 5, wilfosides 50 mg/kg
[7] = 7th day (after administration on days 1-3), Table 5, wilfosides 50 mg/kg
[8] = −1st day (before administration), Table 5, wilfosides 50 mg/kg
[9] = −2nd day (before administration), Table 5, wilfosides 50 mg/kg
[10] = −3rd day (before administration), Table 5, wilfosides 50 mg/kg
[11] = −4th day (before administration), Table 5, wilfosides 50 mg/kg
[12] = −5th day (before administration), Table 5, wilfosides 50 mg/kg
[13] = −6th day (before administration), Table 5, wilfosides 50 mg/kg
[14] = −7th day (before administration), Table 5, wilfosides 50 mg/kg
[15] = 1st day (administration day), Table 2, crude extract 300 mg/kg, others 50 mg/kg
[16] = 2nd day (administration day), Table 2, crude extract 300 mg/kg, others 50 mg/kg
[17] = 3rd day (administration day), Table 2, crude extract 300 mg/kg, others 50 mg/kg
[18] = 4th day (after administration on days 1-3), Table 2, crude extract 300 mg/kg, others 50 mg/kg
[19] = 5th day (after administration on days 1-3), Table 2, crude extract 300 mg/kg, others 50 mg/kg
[20] = 6th day (after administration on days 1-3), Table 2, crude extract 300 mg/kg, others 50 mg/kg
[21] = 7th day (after administration on days 1-3), Table 2, crude extract 300 mg/kg, others 50 mg/kg
[22] = −1st day (before administration), Table 2, crude extract 300 mg/kg, others 50 mg/kg
[23] = −2nd day (before administration), Table 2, crude extract 300 mg/kg, others 50 mg/kg
[24] = −3rd day (before administration), Table 2, crude extract 300 mg/kg, others 50 mg/kg
[25] = −4th day (before administration), Table 2, crude extract 300 mg/kg, others 50 mg/kg
[26] = −5th day (before administration), Table 2, crude extract 300 mg/kg, others 50 mg/kg
[27] = −6th day (before administration), Table 2, crude extract 300 mg/kg, others 50 mg/kg
[28] = −7th day (before administration), Table 2, crude extract 300 mg/kg, others 50 mg/kg

Compound	Average water consumptions [1]	Average water consumptions [2]	Average water consumptions [3]	Average water consumptions [4]	Average water consumptions [5]	Average water consumptions [6]	Average water consumptions [7]	water consumption doses compared with the blank control group (in words) (crude extract 300 mg/kg)	Average water consumptions [8]	Average water consumptions [9]	Average water consumptions [10]	Average water consumptions [11]	Average water consumptions [12]	Average water consumptions [13]	Average water consumptions [14]	Average water consumptions [15]	Average water consumptions [16]	Average water consumptions [17]	Average water consumptions [18]	Average water consumptions [19]	further results
CO[C@H]1C[C@H](O[C@H]2[C@@H](OC)C[C@H](O[C@H]3CC[C@@]4(C)C(=CC[C@]5(O)[C@@H]4C[C@@H](OC(=O)/C=C(\C)C(C)C)[C@@]4(C)[C@]5(O)CC[C@@]4(O)C(C)=O)C3)O[C@@H]2C)O[C@@H](C)[C@H]1O[C@H]1C[C@H](OC)[C@H](O[C@H]2C[C@@H](OC)[C@@H](O)[C@H](C)O2)[C@@H](C)O1 [Wilfoside C1N, wilfoside C1N]	19 mL	20.4 mL	13.2 mL	22 mL	22 mL	21.6 mL	18.8 mL	no much differences	21.8 mL	19.6 mL	19 mL	20 mL	18 mL	16.2 mL	16.2 mL						
CO[C@H]1C[C@H](O[C@H]2[C@@H](OC)C[C@H](O[C@H]3CC[C@@]4(C)C(=CC[C@]5(O)[C@@H]4C[C@@H](OC(=O)/C=C/c4ccccc4)[C@@]4(C)[C@]5(O)CC[C@@]4(O)C(C)=O)C3)O[C@@H]2C)O[C@@H](C)[C@H]1O[C@H]1C[C@H](OC)[C@H](O[C@H]2C[C@@H](OC)[C@@H](O)[C@H](C)O2)[C@@H](C)O1 [Wilfoside K1N, wilfoside K1N]	12.6 mL	19.8 mL	14.4 mL	18 mL	20.4 mL	19.2 mL	21.6 mL	greatly different from those in the blank group	21.8 mL	16.2 mL	17.8 mL	18.8 mL	18.2 mL	16.6 mL	12.7 mL						
CO[C@H]1C[C@H](O[C@H]2[C@@H](OC)C[C@H](O[C@H]3CC[C@@]4(C)C(=CC[C@]5(O)[C@@H]4C[C@@H](OC(=O)/C=C/c4ccccc4)[C@@]4(C)[C@]5(O)CC[C@@]4(O)C(C)=O)C3)O[C@@H]2C)O[C@@H](C)[C@H]1O[C@H]1C[C@H](OC)[C@H](O[C@H]2C[C@@H](OC)[C@@H](O[C@@H]3O[C@H](CO)[C@@H](O)[C@H](O)[C@H]3O)[C@H](C)O2)[C@@H](C)O1 [Cynauricuoside A, cynauricuoside A]								no much differences								13 mL	16 mL	18.6 mL	19 mL	20 mL	Average water consumptions [20]: 22.4 mL; Average water consumptions [21]: 23 mL; Average water consumptions [22]: 21 mL; Average water consumptions [23]: 17.6 mL; Average water consumptions [24]: 22 mL; Average water consumptions [25]: 15.6 mL; Average water consumptions [26]: 19 mL; Average water consumptions [27]: 22 mL; Average water consumptions [28]: 19 mL
CO[C@H]1C[C@H](O[C@H]2[C@@H](OC)C[C@H](O[C@H]3CC[C@@]4(C)C(=CC[C@]5(O)[C@@H]4C[C@@H](OC(=O)/C=C(\C)C(C)C)[C@@]4(C)[C@]5(O)CC[C@@]4(O)C(C)=O)C3)O[C@@H]2C)O[C@@H](C)[C@H]1O[C@H]1C[C@H](OC)[C@H](O[C@H]2C[C@@H](OC)[C@@H](O[C@@H]3O[C@H](CO)[C@@H](O)[C@H](O)[C@H]3O)[C@H](C)O2)[C@@H](C)O1 [Wilfoside C1G, wilfoside C1G]								no great differences								23 mL	21.4 mL	20 mL	21 mL	23 mL	Average water consumptions [20]: 20.6 mL; Average water consumptions [21]: 24 mL; Average water consumptions [22]: 24 mL; Average water consumptions [23]: 19 mL; Average water consumptions [24]: 22 mL; Average water consumptions [25]: 22 mL; Average water consumptions [26]: 18.6 mL; Average water consumptions [27]: 21 mL; Average water consumptions [28]: 18 mL
CC(C)CC(N(C)C)C1(c2ccc(Cl)cc2)CCC1 (stereo not shown) [Positive control, sibutramine hydrochloride, reference compound]	14 mL	19.8 mL	16.4 mL	19.8 mL	17.2 mL	18.6 mL	13.8 mL		23.6 mL	18.2 mL	19.8 mL	18.8 mL	18.8 mL	15.6 mL	13 mL	13.8 mL	17 mL	22 mL	23.8 mL	21 mL	Average water consumptions [20]: 23 mL; Average water consumptions [21]: 25 mL; Average water consumptions [22]: 23 mL; Average water consumptions [23]: 18.2 mL; Average water consumptions [24]: 22 mL; Average water consumptions [25]: 24 mL; Average water consumptions [26]: 22 mL; Average water consumptions [27]: 21.8 mL; Average water consumptions [28]: 33 mL

Counter-ions that a name gives are not always drawn.
